From the supplement of paper PMC10849652
The list shows a part of the results.

Sequences of proteins named here, by UniProt entry; tags and fusion partners are left off. A change or cut given only in a name is not applied to a line headed by its entry.
UniProt O43747: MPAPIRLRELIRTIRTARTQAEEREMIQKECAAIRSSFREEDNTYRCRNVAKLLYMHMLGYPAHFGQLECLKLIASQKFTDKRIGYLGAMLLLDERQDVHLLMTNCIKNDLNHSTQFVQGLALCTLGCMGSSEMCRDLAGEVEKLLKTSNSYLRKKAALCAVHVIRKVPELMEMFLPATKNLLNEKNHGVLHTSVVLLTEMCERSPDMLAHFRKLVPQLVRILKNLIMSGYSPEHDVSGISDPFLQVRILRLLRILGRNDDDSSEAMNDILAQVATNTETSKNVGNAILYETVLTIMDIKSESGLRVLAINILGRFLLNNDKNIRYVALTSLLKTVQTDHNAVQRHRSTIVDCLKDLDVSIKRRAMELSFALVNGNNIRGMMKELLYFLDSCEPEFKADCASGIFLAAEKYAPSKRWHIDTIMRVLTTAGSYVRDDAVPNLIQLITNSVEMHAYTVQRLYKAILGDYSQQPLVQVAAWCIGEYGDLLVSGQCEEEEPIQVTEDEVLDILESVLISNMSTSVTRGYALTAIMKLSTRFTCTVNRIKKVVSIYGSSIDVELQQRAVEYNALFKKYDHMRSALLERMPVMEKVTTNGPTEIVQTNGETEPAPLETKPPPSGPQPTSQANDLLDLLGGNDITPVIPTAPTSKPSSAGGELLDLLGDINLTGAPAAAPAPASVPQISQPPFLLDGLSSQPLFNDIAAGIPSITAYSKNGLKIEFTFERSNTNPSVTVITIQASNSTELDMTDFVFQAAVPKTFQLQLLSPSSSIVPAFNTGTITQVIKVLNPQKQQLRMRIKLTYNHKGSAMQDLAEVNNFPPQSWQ
UniProt Q9Y5C1: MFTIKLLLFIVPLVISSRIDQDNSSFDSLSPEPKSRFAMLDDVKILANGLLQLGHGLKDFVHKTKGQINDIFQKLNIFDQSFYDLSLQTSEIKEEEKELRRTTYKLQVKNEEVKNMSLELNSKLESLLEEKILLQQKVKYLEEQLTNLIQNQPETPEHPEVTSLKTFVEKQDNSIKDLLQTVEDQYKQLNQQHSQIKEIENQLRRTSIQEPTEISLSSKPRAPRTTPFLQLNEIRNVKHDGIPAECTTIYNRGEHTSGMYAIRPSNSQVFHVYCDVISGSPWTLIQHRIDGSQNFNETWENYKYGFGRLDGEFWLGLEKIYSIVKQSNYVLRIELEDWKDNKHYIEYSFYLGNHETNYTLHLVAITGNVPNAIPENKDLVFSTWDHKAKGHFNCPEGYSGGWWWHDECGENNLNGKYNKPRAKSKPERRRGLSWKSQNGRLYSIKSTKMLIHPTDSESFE
UniProt P63010: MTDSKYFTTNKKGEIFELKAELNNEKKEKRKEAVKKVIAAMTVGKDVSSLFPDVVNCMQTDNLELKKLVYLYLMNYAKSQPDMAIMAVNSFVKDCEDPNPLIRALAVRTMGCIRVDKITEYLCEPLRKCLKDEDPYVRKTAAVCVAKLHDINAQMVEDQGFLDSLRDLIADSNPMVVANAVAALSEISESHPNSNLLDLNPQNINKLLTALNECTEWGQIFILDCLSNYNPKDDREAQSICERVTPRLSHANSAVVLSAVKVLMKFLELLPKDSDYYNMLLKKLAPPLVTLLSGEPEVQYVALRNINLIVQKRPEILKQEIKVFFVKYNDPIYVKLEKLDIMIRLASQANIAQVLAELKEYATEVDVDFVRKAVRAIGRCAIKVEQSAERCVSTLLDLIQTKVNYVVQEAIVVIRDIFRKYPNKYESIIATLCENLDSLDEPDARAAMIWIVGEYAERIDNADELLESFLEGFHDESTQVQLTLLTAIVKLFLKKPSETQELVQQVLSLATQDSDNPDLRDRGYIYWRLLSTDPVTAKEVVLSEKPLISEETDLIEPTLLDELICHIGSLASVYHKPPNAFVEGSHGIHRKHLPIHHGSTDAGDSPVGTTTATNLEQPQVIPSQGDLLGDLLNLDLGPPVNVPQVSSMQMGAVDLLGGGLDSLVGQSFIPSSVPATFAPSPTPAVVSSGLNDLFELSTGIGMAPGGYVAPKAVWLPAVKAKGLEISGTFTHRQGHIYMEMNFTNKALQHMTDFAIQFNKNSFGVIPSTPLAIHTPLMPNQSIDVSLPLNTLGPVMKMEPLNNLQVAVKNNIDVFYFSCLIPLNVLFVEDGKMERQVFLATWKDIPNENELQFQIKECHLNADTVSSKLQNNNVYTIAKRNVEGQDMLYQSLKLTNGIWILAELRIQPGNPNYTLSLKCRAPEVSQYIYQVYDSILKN
UniProt O95782: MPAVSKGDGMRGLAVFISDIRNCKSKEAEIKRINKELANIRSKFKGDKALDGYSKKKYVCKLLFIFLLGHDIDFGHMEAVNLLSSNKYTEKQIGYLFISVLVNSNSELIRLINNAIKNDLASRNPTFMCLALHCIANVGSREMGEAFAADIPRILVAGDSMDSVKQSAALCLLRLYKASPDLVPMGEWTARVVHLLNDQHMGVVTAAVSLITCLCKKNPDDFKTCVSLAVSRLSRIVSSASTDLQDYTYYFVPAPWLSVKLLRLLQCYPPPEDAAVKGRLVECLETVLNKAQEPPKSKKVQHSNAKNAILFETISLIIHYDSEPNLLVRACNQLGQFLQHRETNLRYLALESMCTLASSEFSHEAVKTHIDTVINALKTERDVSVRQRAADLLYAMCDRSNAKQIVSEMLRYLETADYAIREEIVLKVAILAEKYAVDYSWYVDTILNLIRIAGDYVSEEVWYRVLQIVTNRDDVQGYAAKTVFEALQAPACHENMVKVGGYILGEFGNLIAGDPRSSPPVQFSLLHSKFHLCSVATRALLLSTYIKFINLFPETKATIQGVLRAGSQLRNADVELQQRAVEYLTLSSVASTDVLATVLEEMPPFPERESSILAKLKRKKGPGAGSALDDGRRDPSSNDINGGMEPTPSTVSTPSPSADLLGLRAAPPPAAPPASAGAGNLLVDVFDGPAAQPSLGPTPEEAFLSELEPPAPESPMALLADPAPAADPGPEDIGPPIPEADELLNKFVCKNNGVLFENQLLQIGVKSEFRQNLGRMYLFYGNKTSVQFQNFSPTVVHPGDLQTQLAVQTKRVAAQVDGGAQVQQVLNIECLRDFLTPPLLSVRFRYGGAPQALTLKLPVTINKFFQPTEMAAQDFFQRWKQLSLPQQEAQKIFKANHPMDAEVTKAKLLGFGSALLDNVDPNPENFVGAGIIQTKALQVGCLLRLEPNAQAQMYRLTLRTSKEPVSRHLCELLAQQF
UniProt O60306: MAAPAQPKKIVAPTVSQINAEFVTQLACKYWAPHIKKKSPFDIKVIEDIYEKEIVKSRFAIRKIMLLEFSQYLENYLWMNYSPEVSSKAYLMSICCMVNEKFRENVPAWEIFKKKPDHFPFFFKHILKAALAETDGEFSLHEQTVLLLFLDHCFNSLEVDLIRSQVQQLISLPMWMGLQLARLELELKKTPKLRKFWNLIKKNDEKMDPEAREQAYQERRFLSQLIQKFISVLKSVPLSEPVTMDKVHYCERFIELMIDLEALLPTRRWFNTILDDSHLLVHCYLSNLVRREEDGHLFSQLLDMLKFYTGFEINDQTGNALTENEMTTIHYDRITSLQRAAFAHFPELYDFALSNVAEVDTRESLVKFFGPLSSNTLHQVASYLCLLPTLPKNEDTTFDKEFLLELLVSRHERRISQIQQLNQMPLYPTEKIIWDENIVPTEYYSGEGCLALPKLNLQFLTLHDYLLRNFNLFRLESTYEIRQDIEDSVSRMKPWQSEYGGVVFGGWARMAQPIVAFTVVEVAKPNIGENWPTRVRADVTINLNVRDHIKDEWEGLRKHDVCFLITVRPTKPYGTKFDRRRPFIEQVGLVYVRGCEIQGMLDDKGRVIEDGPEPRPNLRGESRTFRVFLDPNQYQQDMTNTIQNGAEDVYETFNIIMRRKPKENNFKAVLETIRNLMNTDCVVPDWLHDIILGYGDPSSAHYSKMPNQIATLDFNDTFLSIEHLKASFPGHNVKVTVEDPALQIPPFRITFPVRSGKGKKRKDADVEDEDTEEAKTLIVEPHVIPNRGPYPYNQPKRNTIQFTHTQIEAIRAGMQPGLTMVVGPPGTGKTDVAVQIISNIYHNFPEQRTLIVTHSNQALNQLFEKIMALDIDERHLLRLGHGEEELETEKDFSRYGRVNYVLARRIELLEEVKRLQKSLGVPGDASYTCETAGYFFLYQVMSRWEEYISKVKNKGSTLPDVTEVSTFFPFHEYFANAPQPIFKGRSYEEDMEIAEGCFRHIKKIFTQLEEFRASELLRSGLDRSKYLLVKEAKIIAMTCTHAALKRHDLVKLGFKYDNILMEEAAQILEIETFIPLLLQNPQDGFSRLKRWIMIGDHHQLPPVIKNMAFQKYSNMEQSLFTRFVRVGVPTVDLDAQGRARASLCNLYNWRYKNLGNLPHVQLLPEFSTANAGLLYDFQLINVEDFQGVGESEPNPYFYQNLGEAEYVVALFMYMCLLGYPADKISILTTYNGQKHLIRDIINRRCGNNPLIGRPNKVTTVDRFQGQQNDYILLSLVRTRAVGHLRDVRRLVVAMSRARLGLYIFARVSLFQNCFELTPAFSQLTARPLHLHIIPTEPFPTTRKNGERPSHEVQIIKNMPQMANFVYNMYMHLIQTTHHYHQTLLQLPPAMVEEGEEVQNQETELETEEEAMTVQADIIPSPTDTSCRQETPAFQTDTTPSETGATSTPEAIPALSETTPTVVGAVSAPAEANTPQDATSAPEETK
UniProt P02647, whole entry, looked up: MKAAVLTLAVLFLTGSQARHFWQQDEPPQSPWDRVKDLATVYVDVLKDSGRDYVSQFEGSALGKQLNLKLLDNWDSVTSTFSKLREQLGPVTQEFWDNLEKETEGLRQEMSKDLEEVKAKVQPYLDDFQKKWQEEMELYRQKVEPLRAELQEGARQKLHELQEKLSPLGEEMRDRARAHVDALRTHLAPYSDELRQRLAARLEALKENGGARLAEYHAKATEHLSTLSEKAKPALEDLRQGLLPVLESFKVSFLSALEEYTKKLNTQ
UniProt Q9HC16: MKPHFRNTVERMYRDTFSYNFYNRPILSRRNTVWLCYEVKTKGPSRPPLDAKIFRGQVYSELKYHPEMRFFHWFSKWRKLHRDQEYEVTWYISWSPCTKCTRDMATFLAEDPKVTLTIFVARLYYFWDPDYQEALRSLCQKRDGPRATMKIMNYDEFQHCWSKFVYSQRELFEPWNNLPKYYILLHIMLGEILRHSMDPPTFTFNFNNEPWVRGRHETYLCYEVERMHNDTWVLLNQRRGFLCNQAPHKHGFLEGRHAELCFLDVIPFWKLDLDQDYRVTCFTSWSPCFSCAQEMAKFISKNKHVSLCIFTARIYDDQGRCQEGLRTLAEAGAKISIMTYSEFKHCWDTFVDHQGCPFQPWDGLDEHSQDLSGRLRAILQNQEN
UniProt Q96GX9: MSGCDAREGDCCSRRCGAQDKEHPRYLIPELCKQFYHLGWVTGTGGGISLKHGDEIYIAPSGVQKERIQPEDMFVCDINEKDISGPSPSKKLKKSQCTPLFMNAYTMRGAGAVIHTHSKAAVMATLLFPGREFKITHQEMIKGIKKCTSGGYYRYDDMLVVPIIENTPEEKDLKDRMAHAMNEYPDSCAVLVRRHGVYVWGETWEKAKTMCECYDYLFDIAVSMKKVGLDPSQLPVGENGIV
UniProt Q96AK3: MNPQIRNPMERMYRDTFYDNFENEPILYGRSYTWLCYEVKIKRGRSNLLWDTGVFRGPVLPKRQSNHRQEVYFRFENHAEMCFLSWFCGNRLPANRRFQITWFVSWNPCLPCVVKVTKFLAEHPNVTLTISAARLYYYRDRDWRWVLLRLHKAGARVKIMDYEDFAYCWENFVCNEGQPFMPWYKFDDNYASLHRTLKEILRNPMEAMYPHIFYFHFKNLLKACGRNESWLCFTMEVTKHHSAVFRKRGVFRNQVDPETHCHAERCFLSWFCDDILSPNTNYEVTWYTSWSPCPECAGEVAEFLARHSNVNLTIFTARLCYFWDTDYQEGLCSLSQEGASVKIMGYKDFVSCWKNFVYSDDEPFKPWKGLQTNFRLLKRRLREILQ
UniProt Q9H0R1: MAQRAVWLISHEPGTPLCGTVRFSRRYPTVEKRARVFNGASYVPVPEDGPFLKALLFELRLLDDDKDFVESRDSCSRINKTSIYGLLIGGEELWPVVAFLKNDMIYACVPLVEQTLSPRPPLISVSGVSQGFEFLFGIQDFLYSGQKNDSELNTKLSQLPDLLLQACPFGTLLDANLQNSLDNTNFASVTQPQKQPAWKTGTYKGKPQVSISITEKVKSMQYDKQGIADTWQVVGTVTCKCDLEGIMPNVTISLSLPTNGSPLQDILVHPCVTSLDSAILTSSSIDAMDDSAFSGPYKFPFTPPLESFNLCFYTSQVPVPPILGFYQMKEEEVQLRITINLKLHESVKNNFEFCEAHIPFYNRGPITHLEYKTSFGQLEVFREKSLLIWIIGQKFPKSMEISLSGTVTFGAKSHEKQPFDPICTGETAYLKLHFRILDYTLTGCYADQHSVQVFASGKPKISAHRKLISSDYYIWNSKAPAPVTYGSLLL

compound: COc1cc2ncnc(Nc3ccc(F)c(Cl)c3)c2cc1OCCCN1CCOCC1 [gefitinib]; test: log2 fold change, soluble protein after heating vs DMSO (PISA); higher = thermal stabilisation; K562 cells, 10 uM, 30 min; active = over 0.2 and 3.5 SD of the protein, either way, in both replicates (recomputed)
In short: (§1)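 Aliquots of K562 cells (2×10^6 cells/mL) treated with 10 μM compound for 30 min were heated for 3 min over 48°C-58°C. After pooling and extraction in PBS with 0.5% NP-40 at 4°C, soluble protein from a 21,000xg, 90 min spin was quantified by TMTpro 16plex LC-MS/MS with channel sums equalised. Thermal stability is expressed against control samples, from duplicates, as a log2 fold change.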

log2 fold change, inactive:
ANXA5 (UniProt P08758) 0.05
ARFGAP1 (UniProt Q8N6T3) -0.022
APOO (UniProt Q9BUR5) -0.004
ARHGAP6 (UniProt O43182) -0.146
APLP2 (UniProt Q06481) 0.106
AP1G1 isoform 2 (UniProt O43747) 0.017
APOB (UniProt P04114) -0.129
ANAPC5 (UniProt Q9UJX4) -0.004
AP2M1 (UniProt C9JTK4) 0.005
ARHGAP12 (UniProt Q8IWW6) 0.096

compound: COc1cccc2cc(-c3nc([C@H]4CC[C@H](C(=O)O)CC4)n4ncnc(N)c34)[nH]c12; test: as above
In short: as §1

log2 fold change, inactive:
ANGPTL3 (UniProt Q9Y5C1) 0.076
AP2B1 isoform 2 (UniProt P63010) 0.01
ANKMY2 (UniProt Q8IV38) -0.036
AP2A1 (UniProt O95782) 0.005
ANK1 isoform 14 (UniProt P16157) -0.299
AQR (UniProt O60306) 0
ARHGAP1 (UniProt Q07960) -0.036
ANKRD13A (UniProt Q8IZ07) 0.024
ANKRD49 (UniProt Q8WVL7) 0
APOOL (UniProt Q6UXV4) 0.072
ARID1A (UniProt O14497) 0.072
ARFGEF2 (UniProt Q9Y6D5) 0.007
ARHGEF12 (UniProt Q9NZN5) -0.068
ARHGEF7 isoform 5 (UniProt Q14155) -0.181
ARAP1 (UniProt Q96P48) -0.042
ANXA3 (UniProt P12429) 0.037
ARFGAP3 (UniProt Q9NP61) 0.01
APOA1 (UniProt P02647) 0.233
APMAP (UniProt Q9HDC9) 0.047
APOBR (UniProt Q0VD83) 0.055
APOBEC3G (UniProt Q9HC16) -0.053
AP1B1 (UniProt Q10567) 0.031
APIP (UniProt Q96GX9) 0.065
APOBEC3D (UniProt Q96AK3) -0.033
AP5M1 (UniProt Q9H0R1) 0.4
ANXA5 (UniProt P08758) -0.032
ARFGAP1 (UniProt Q8N6T3) -0.015
APOO (UniProt Q9BUR5) 0.035
ARHGAP6 (UniProt O43182) -0.115
APLP2 (UniProt Q06481) -0.04
APOM (UniProt O95445) 0.306
AP1G1 isoform 2 (UniProt O43747) -0.015
APOB (UniProt P04114) 0.164
ANAPC5 (UniProt Q9UJX4) -0.024
AP2M1 (UniProt C9JTK4) 0.123
ARHGAP12 (UniProt Q8IWW6) 0.078
